Source: PubChem BioAssay AID1159506 (NCATS, 2015).

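Luminescence from an EWS-FLI1 target-promoter (NR0B1) reporter, set against a CMV-promoter reporter, two days after silencing single genes in TC32 Ewing sarcoma cells. Each siRNA was applied at 20 nM. A z-score of the log NR0B1-over-CMV signal, less the median of siRNAs with the same seed; more negative means a stronger specific loss of the NR0B1 reporter.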

The strongest results of the screen are mostly left out here. Sequences are the guide (antisense) strand, without overhang.

{"strand": "AAAAGAGUAAUCGUCAUCA", "gene": "LY96", "seed-corrected z-score": "0.308"}
{"strand": "UAGCCCUCAAUUGCAGCAC", "gene": "HSD11B2", "seed-corrected z-score": "-0.06938"}
{"strand": "UGGUUUAUCACAAUGAUGA", "gene": "TMEM86B", "seed-corrected z-score": "0.9212"}
{"strand": "AAGGUGACAAUGACUUUUC", "gene": "FLJ13224", "seed-corrected z-score": "-1.031"}
{"strand": "UUGGGUUAUAGUUGGAAAC", "gene": "DAP3", "seed-corrected z-score": "0.5689"}
{"strand": "AAACUCAUAGGGAAAUGUC", "gene": "PACRG", "seed-corrected z-score": "-0.8064"}
{"strand": "UACGGUUCCAGUCAAUGCA", "gene": "PADI1", "seed-corrected z-score": "0.4749"}
{"strand": "UACAUCUAUGUUUAACUCC", "gene": "COPS2", "seed-corrected z-score": "0.733"}
{"strand": "UAUGUUUCUCUCUUUGAUA", "gene": "CFC1", "seed-corrected z-score": "-0.3034"}
{"strand": "AUAAGGUACCGAUUACUGC", "gene": "C1orf228", "seed-corrected z-score": "0.6856"}
{"strand": "UAUGUUGUAAUGCAAGAUG", "gene": "DLGAP1", "seed-corrected z-score": "-0.8661"}
{"strand": "UGAGGGCUUACACUACCUG", "gene": "MZF1", "seed-corrected z-score": "-0.4593"}
{"strand": "UCAUCAAACGUGAAGCUCU", "gene": "RIC8A", "seed-corrected z-score": "0.04201"}
{"strand": "UUGUUGUACAAGGCCGUCC", "gene": "SRRD", "seed-corrected z-score": "-0.453"}
{"strand": "UUGUUCUUCAGGUCAAAGG", "gene": "CD4", "seed-corrected z-score": "-0.0653"}
{"strand": "UGUGCAUAGAGAAGGAAGU", "gene": "KIAA0930", "seed-corrected z-score": "1.003"}
{"strand": "UUGCCGAUCAGAUAGGUUC", "gene": "RFX3", "seed-corrected z-score": "-0.1529"}
{"strand": "UACUUUUCCUCGUACAUCU", "gene": "WNK4", "seed-corrected z-score": "-0.1161"}
{"strand": "UUUCGUUAGAGCAACUGGG", "gene": "DHRS7B", "seed-corrected z-score": "-0.4094"}
{"strand": "UUUGGUAUCACACCAGAGG", "gene": "MAGEC2", "seed-corrected z-score": "0.09324"}
{"strand": "AAAUGAACAGCAAGCAUGG", "gene": "EPT1", "seed-corrected z-score": "0.7682"}
{"strand": "AAAUCGACAGACACUGUCC", "gene": "SLFN5", "seed-corrected z-score": "0.8491"}
{"strand": "UCUUGUCAAAAUUAUCCCG", "gene": "NXF2", "seed-corrected z-score": "0.2318"}
{"strand": "AUAUAGGUUUGCAAGAUGG", "gene": "PDE7B", "seed-corrected z-score": "-1.672"}
{"strand": "AAAGGUUCCGGGACGAAGG", "gene": "ASPRV1", "seed-corrected z-score": "-1.288"}
{"strand": "AAAGCAAAAGGUUACAUUU", "gene": "DAD1", "seed-corrected z-score": "-0.1748"}
{"strand": "UCUUCAUAAACAUUUCUCG", "gene": "NDUFA6", "seed-corrected z-score": "0.844"}
{"strand": "UUUCAUGGAGGAUUCGUGG", "gene": "PRM3", "seed-corrected z-score": "0.1038"}
{"strand": "UAUAUAAUUUAUCAGGUCU", "gene": "ITGB1BP1", "seed-corrected z-score": "0.06337"}
{"strand": "AGAAUCAUUACUUCCAUUC", "gene": "TMPO", "seed-corrected z-score": "-0.3156"}
{"strand": "AUCAUAUCCAGUAAAGGCC", "gene": "LINGO2", "seed-corrected z-score": "-0.5187"}
{"strand": "UGUAGCAACAGGACCUUGC", "gene": "KIAA0586", "seed-corrected z-score": "0.2858"}
{"strand": "AUACUUUCCAGUCAGGGUC", "gene": "MOV10", "seed-corrected z-score": "0.6086"}
{"strand": "UACUAGCCCAGAAUUCUCC", "gene": "CUL3", "seed-corrected z-score": "-0.5225"}
{"strand": "UAACCUUCAUGUCUAUUUC", "gene": "GUCY1B3", "seed-corrected z-score": "0.8324"}
{"strand": "UUCUUCCAUACGAUGAAGC", "gene": "NTSR2", "seed-corrected z-score": "-0.5154"}
{"strand": "UGGUUGUCAAUAACGUGUC", "gene": "ANKS6", "seed-corrected z-score": "0.8484"}
{"strand": "UUUGAGUAGUUUAAUGAGU", "gene": "ANAPC11", "seed-corrected z-score": "-0.6691"}
{"strand": "UUCUUGUUCCGGCAUCGGG", "gene": "JDP2", "seed-corrected z-score": "0.8981"}
{"strand": "UGAGGUGGGAGAUUACUCG", "gene": "LOC645188", "seed-corrected z-score": "-1.47"}
{"strand": "UAAUAAACGAAUGGUCACC", "gene": "MSMO1", "seed-corrected z-score": "-0.5249"}
{"strand": "UUCCUUAACCUCUCGAGCC", "gene": "CCDC27", "seed-corrected z-score": "0.5258"}

For reference, 4 entries once more:

{"strand": "UAUGUUUCUCUCUUUGAUA", "gene": "CFC1", "seed-corrected z-score": "-0.3034"}
{"strand": "AAGGUGACAAUGACUUUUC", "gene": "FLJ13224", "seed-corrected z-score": "-1.031"}
{"strand": "UAGCCCUCAAUUGCAGCAC", "gene": "HSD11B2", "seed-corrected z-score": "-0.06938"}
{"strand": "UAAUAAACGAAUGGUCACC", "gene": "MSMO1", "seed-corrected z-score": "-0.5249"}